# Values joined by “and” are separate entries in the source; they are usually repeats but may differ in a detail not shown here. Identical values can stand only once. The shares of active, inactive and inconclusive entries below differ from those in the screen. For some of these results: Potencies beside an inconclusive call are fits to weak or partial responses and may not hold up. Some structures have more than one record in an assay (separate samples or runs), and their calls can disagree. Active and inactive are the calls of the source. Rule for the calls: active = hit-call score of the fitted dose curve at least 0.9, where 1 is the maximum; inconclusive = response in the unintended direction; inactive = score below 0.9.
# Columns and labels:
# [1] = CCTE_Mundy_HCI_hN2_NOG_NeuriteLength: CCTE's Neurite Outgrowth Assay in human hN2 cells for Neurite Length, Mundy Lab (AID 2284220)
# Description: CCTE_Mundy_HCI_hN2_NOG is a multiplexed, cell-based-readout assay that uses immature neurons derived from hNP1 neuroprogenitor cells with measurements taken at 50.33 hours after chemical dosing in a microplate: 96-well plate.CCTE_Mundy_HCI_hN2_NOG_NeuriteLength is one of four components of the CCTE_Mundy_HCI_hN2_NOG assay. It measures neurite outgrowth related to neurite length using High Content Imaging of fluorescently labelled markers.[…] Using a type of morphology reporter, loss -of-signal activity can be used to understand developmental effects.
# Exposure starts 2 hours post-plating by adding 10 ul of the working solution to 90 ul of media in the wells for a 1/10 dilution. Forty-eight hours after chemical treatment cells are fixed by direct addition of 100 ul of warm (37C) Dulbecco's phosphate buffered saline (DPBS) fixative solution containing 8% paraformaldehyde, 8% sucrose, and 0.1% of 3 mg/ml Hoechst 33342 into each well. Primary antibodies are prepared by dilution in Immunocytochemical Staining Buffer (ISB), 10X Dulbecco's PBS, 0.1% Saponin, 5% Bovine Serum Albumin, 0.5% NaN3 (Sodium Azide) and betaIII-tubulin (rabbit anti-betaIII-tubulin, 1:800) followed by Alexa Fluor-488 secondary (1:500) to label neuronal cell bodies and neurites. A Cellomics ArrayScan VTi HCS Reader is used for automated image acquisition and analysis of neurite outgrowth.
# [2] = IUF_NPC4_neurite_area_120hr: Leibniz Research Institute for Environmental Medicine (IUF) 120-hour Neuronal Morphology Assay for Neurite Area (NPC4) (AID 2284305)
# Method in brief: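 hNPC spheres on PDL/laminin, N2 medium, 37C/5% CO2; dosed day 0, half-medium refresh day 3; fixed 120 h; TUBB3/Hoechst ICC, high-content imaging; neurite area = mean pixels per neuron (nuclei excluded); DMSO baseline, max 0.1%.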
# [3] = TAMU_HCS_1.5hr_SingleDonor1434_Cytotoxicity: Cytotoxicity Assessment using High-content Screening (HCS) Fluorescent Imaging for the Texas A&M University (TAMU) 1.5-hr Human Induced Pluripotent Stem Cell (iPSC)-derived Cardiotoxicity Assay (AID 2284234)
# Method in brief: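 Nuclear counts from Hoechst 33342 imaging define cytotoxicity here, with EC10 (10% cell-count loss relative to DMSO) as point of departure. iPSC cardiomyocytes received 0.2-100 uM test chemical in 0.5% DMSO for 1.5 h at 37 C.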
# [4] = TAMU_PeakParms_SingleDonor1434_QT: Texas A&M University (TAMU) 1.5-hr Human Induced Pluripotent Stem Cell (iPSC)-derived Cardiomyocytes Calcium (Ca+2) Flux Assay for Cardiotoxicity: QT (decay-rise ratio) (AID 2284235)
# Method in brief: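 Decay/rise ratio of calcium-flux fluorescence scored after 90 min exposure (37C) of donor 1434 iPSC cardiomyocytes to 0.2–100 uM (0.5% DMSO). Beat-cessation and severe-notch points removed; POD is EC05, a 5% rise over DMSO.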
# [5] = CCTE_Mundy_HCI_hNP1_Pro_ResponderAvgInten: CCTE's Proliferation Assay in human neuroprogenitor cells, Mundy Lab (AID 2284224);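 note: human neural progenitor cells hNP1 derived from WA09 embryonic stem cells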
# Method in brief: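 Proliferation read as average intensity of BrdU-positive cells, imaged at 26.25 h post-dosing: chemical exposure started after 40–44 h culture, BrdU during final 4 h, paraformaldehyde fixation. Positive-direction fit relative to DMSO.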
# [6] = CCTE_Mundy_HCI_Cortical_Synap_Neur_Matur_NeuronCount: CCTE's Synaptogenesis and Neurite Maturation Assay in rat cortical cells for Neuron Count, Mundy Lab (AID 2284242);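 for AC50: hits reduce neuron count versus DMSO baseline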
# Method in brief: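 Measured at DIV 12: fluorescently labelled neurons (Hoechst nuclei, MAP2) in rat primary cortical cultures, counted by high-content imaging. AraC suppressed glia from DIV 5; DMSO served as negative control.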
# [7] = IUF_NPC5_oligodendrocyte_differentiation_120hr: Leibniz Research Institute for Environmental Medicine (IUF) 120-hour Oligodendrocyte Differentiation Assay (NPC5) (AID 2284304);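 note: primary human fetal neural progenitor spheres plated to migrate and differentiate; share of O4-positive cells among Hoechst nuclei found by CNN image analysis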
# Method in brief: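 Oligodendrocyte differentiation was scored after 120 h as the O4-positive share of Hoechst-stained nuclei across the neurosphere migration area, using a trained convolutional neural network on high-content fluorescence images. Human fetal neural progenitor spheres were dosed from day 0, normalised to DMSO.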
# [8] = CCTE_Mundy_HCI_hNP1_CellTiter: CCTE's Cell Titer-Glo 2 Assay in human neuroprogenitor cells for Viability, Mundy Lab (AID 2284241);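 for AC50: a hit is a drop in ATP luminescence versus DMSO meaning reduced viability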
# Method in brief: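 Viability read as luminescent ATP content (CellTiter-Glo, 30 min room temperature) twenty-four hours after dosing, relative to DMSO. Cells: WA09-derived hNP1 neuroprogenitors on poly-L-ornithine/laminin, plated 40 to 44 hours before chemical.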
# [9] = CCTE_Mundy_HCI_Cortical_NOG_NeuronCount: CCTE's Neurite Outgrowth Assay in rat cortical cells for Neuron Count, Mundy Lab (AID 2284236);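 note: neurons counted by imaging betaIII-tubulin and Hoechst stained cortical cells; cells exposed to compound for about 48 hours before fixation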
# Method in brief: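 Read-out: neuron number by high-content imaging of betaIII-tubulin (Alexa Fluor-488) and Hoechst-labelled rat primary cortical cells.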
smiles,measurement,setting,value
ClC1=C(Cl)[C@]2(Cl)[C@@H]3[C@@H]4C[C@@H]([C@H]5O[C@@H]45)[C@@H]3[C@@]1(Cl)C2(Cl)Cl,outcome,[1],inactive
ClC1=C(Cl)C2(Cl)C3C(Cl)C=CC3C1(Cl)C2(Cl)Cl (configuration not stated),AC50,[1],active: 4.18 µM
OCCOCCO,AC50,[2],inconclusive: 0.206 µM
O=S1OCC2C(CO1)C1(Cl)C(Cl)=C(Cl)C2(Cl)C1(Cl)Cl (configuration not stated),outcome,[2],inactive
CNC(=O)ON=CC(C)(C)SC,AC50,[3],inconclusive: 0.156 µM
CNC(=O)Oc1cccc2ccccc12,AC50,[4],inconclusive: 50 µM
Oc1cccc2cccnc12,outcome,[3],inactive
CC(C)(C)C(=O)C(Oc1ccc(Cl)cc1)n1cncn1 (configuration not stated),AC50,[5],inconclusive: 2.34 nM
same,AC50,[6],active: 11 µM
same,AC50,[2],inconclusive: 0.0412 µM
CCOc1cc(Oc2ccc(C(F)(F)F)cc2Cl)ccc1[N+](=O)[O-],AC50,[5],active: 10900 nM
same,AC50,[6],active: 15 µM
same,AC50,[7],active: 5.26 µM
same,outcome,[2],inactive
CCN(CC)c1nc(C)cc(OP(=S)(OC)OC)n1,AC50,[5],active: 89200 nM
same,AC50,[8],active: 71.4 µM
same,AC50,[6],active: 9.92 µM
CC(C)(C)c1ccccc1OP(=O)(Oc1ccccc1)Oc1ccccc1,AC50,[3],inconclusive: 0.34 µM
same,AC50,[4],inconclusive: 91.8 µM
same,AC50,[7],active: 4.35 µM
CCCCCCCCn1sccc1=O,AC50,[4],inconclusive: 50 µM
O=S1(=O)OCC2C(CO1)C1(Cl)C(Cl)=C(Cl)C2(Cl)C1(Cl)Cl (configuration not stated),AC50,[7],active: 0.403 µM
same,outcome,[2],inactive
Oc1ccccc1-c1ccccc1,AC50,[3],inconclusive: 50 µM
same,AC50,[4],inconclusive: 50 µM
Cc1ccc(-c2c(Cl)nc(C#N)n2S(=O)(=O)N(C)C)cc1,AC50,[5],active: 50000 nM
same,AC50,[6],active: 50 µM
same,AC50,[2],active: 26.1 µM
CC(C)COC(=O)c1ccccc1C(=O)OCC(C)C,outcome,[5],inactive
same,outcome,[8],inactive
same,AC50,[6],active: 80.3 µM
NC(=O)c1ccc(N)nc1,AC50,[5],inconclusive: 12.6 nM
same,AC50,[6],active: 7.58 µM
N#Cc1nn(-c2c(Cl)cc(C(F)(F)F)cc2Cl)c(N)c1S(=O)C(F)(F)F (configuration not stated),outcome,[9],inactive
same,AC50,[6],active: 15 µM
same,AC50,[7],active: 1.99 µM
CCCCC(CC)COP(=O)(Oc1ccccc1)Oc1ccccc1 (configuration not stated),AC50,[3],active: 50 µM
same,outcome,[4],inactive
same,AC50,[9],inconclusive: 15 µM
same,AC50,[6],inconclusive: 0.0169 µM
CC(C)CCCCCCCOP(=O)(Oc1ccccc1)Oc1ccccc1,AC50,[3],inconclusive: 50 µM
same,outcome,[4],inactive
same,AC50,[7],active: 5.15 µM
O=S1OC[C@@H]2[C@H](CO1)[C@]1(Cl)C(Cl)=C(Cl)[C@@]2(Cl)C1(Cl)Cl (some centres not stated),outcome,[2],inactive
CS(=O)(=O)c1cc(C(F)(F)F)ccc1C(=O)c1cnoc1C1CC1,outcome,[5],inactive
same,outcome,[8],inactive
same,AC50,[6],inconclusive: 0.00564 µM
same,outcome,[2],inactive
COc1ccc(O)c(C(C)(C)C)c1,AC50,[9],inconclusive: 0.00354 µM
same,outcome,[8],inactive
same,outcome,[6],inactive
COP(=O)(OC)OC(Br)C(Cl)(Cl)Br (configuration not stated),AC50,[5],active: 14 µM and active: 16.7 µM
same,AC50,[6],active: 26.1 µM
same,outcome,[6],inactive
same,AC50,[7],inconclusive: 86.8 µM
Cc1cc(C(F)(C(F)(F)F)C(F)(F)F)ccc1NC(=O)c1cccc(I)c1C(=O)NC(C)(C)CS(C)(=O)=O,outcome,[9],inactive
same,AC50,[6],inconclusive: 0.000227 µM
same,AC50,[7],active: 4.22 µM
CC(C)N(C(=O)COc1nnc(C(F)(F)F)s1)c1ccc(F)cc1,outcome,[5],inactive
same,AC50,[6],inconclusive: 0.0003 µM
CN(C)C(=S)SSC(=S)N(C)C,AC50,[5],active: 77.1 nM
same,AC50,[2],active: 27.5 µM
CCOP(=S)(Oc1cnc(C(C)(C)C)nc1)OC(C)C (configuration not stated),AC50,[5],active: 77600 nM
same,outcome,[6],inactive
O=C1C2CC=CCC2C(=O)N1SC(Cl)(Cl)Cl (configuration not stated),AC50,[3],active: 84.7 µM
CO/N=C(/C1=NOCCO1)c1ccccc1Oc1ncnc(Oc2ccccc2Cl)c1F,outcome,[5],inactive
same,AC50,[8],inconclusive: 1.83 µM
same,AC50,[6],active: 1.52 µM
O=S(=O)(O)C(F)(F)C(F)(F)C(F)(F)C(F)(F)F,AC50,[5],inconclusive: 50000 nM
same,outcome,[8],inactive
same,AC50,[6],inconclusive: 0.00581 µM
COP(=S)(OC)Oc1ccc([N+](=O)[O-])cc1,AC50,[5],inconclusive: 84.4 nM
same,outcome,[2],inactive
CCSC(=O)N1CCCCCC1,AC50,[5],inconclusive: 2.37 nM
same,outcome,[6],inactive
same,AC50,[2],inconclusive: 0.0138 µM
CN1CSC(=S)N(C)C1,AC50,[3],inconclusive: 0.74 µM
CCOCN(C(=O)CCl)c1c(C)cccc1CC,AC50,[3],active: 81.6 µM
same,AC50,[4],inconclusive: 50 µM
CCCCOC(=O)c1ccccc1C(=O)OCCCC,AC50,[6],active: 81.3 µM
same,AC50,[7],inconclusive: 90.9 µM
same,AC50,[2],inconclusive: 0.0126 µM
